{"source": "patent US20240027428A1", "about": "“METHOD FOR BUILDING CO-CULTURE MODEL FOR CACO-2/RAW-264.7 CELLS INDUCED BY LIPOPOLYSACCHARIDES AND APPLICATION OF CO-CULTURE MODEL” (ZHEJIANG UNIVERSITY OF TECHNOLOGY, priority 2022, published 2024)", "tested_on": "Caco-2 cells", "test": "Transport tests for Lucifer yellow across Caco-2 monolayer in Transwell", "type": "in vitro ADME", "conditions": "Ex=427 nm, Em=536 nm, n=3", "protocol": "Drawing of a standard curve for Lucifer yellow: 0.005 μg/mL, 0.01 μg/mL, 0.025 μg/mL, 0.05 μg/mL, 0.1 μg/mL, and 0.25 μg/mL of standard solutions for Lucifer yellow were prepared, the fluorescence intensities (an excitation wavelength: 427 nm, and an emission wavelength: 536 nm) of the standard solutions for Lucifer yellow were measured with a fluorescence spectrophotometer, and linear regression was performed with the fluorescence intensity as an ordinate and the concentration ([…]) as an abscissa. A standard curve was drawn.\nTransport tests for Lucifer yellow: Caco-2 cells grew to 21 days in a Transwell, and then a culture medium was sucked and discarded. A preheated HBSS was added to both an AP side and a BL side for cleaning twice and was sucked and discarded, and then a preheated HBSS was added to perform culture under the conditions of 37° C. and 5% CO2 for 20 min. […] Under the condition of Ex=427 nm and Em=536 nm, the fluorescence intensity was measured according to a standard curve and a transport formula. A concentration and permeability coefficient of a transport solution for the Lucifer yellow CH on the BL side were calculated. […]", "note": "Some values come without a unit; they compare only within their column."}
{"substance": "Lucifer yellow", "values": [{"measurement": "fluorescence intensity on BL side", "setting": "60 min", "value": "26.512 +/−1.502"}, {"measurement": "fluorescence intensity on BL side", "setting": "120 min", "value": "27.035 +/−3.184"}]}
